In experiment [1] the target is HDAC5 (endogenous, mouse liver) (mouse (endogenous in liver)) (UniProt Q9Z2V6). The experiment can be described thus: co-IP; immunoprecipitation of HDAC5 from liver samples of RD- or HFD-fed mice, immunoblot of BMAL1. (In general: A western blot detects proteins with antibodies after separation by electrophoresis.)
Experiment [2] deals with HDAC5 (endogenous, primary hepatocytes) (not stated (endogenous in primary hepatocytes)) (UniProt Q9Z2V6). The experiment in a line: co-IP; immunoprecipitation of endogenous HDAC5 from primary hepatocytes, immunoblot of BMAL1; cells untreated or exposed to FSK.

The chains behind the UniProt entries cited, without tags or fusion partners.
UniProt Q9Z2V6: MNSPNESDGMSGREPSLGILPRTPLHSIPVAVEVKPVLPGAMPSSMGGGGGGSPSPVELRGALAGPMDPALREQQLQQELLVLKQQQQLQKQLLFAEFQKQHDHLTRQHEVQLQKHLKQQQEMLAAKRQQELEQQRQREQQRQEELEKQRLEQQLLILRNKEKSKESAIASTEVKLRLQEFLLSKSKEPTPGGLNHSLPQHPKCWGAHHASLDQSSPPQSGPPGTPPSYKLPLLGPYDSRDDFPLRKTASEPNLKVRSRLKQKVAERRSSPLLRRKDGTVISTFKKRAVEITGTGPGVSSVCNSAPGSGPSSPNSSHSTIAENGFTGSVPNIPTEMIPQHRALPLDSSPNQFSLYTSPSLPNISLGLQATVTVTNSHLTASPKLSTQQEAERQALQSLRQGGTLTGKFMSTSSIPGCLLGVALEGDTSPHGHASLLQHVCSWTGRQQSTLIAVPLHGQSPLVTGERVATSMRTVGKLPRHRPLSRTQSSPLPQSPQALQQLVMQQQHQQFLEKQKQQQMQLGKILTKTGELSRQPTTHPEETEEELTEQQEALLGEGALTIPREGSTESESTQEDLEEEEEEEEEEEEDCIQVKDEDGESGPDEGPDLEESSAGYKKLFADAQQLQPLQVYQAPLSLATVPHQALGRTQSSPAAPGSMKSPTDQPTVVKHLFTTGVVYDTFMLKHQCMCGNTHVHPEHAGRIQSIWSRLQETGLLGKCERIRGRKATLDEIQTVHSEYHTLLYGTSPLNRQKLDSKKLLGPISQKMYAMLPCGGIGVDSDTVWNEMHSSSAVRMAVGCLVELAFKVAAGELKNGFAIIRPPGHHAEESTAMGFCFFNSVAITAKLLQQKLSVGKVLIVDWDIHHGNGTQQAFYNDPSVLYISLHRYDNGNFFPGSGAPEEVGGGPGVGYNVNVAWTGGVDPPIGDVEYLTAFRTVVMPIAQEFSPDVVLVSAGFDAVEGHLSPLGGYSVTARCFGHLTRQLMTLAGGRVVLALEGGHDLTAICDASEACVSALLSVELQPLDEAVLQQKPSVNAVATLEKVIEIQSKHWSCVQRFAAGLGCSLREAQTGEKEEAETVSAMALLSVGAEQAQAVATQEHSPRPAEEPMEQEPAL
UniProt Q9WTL8: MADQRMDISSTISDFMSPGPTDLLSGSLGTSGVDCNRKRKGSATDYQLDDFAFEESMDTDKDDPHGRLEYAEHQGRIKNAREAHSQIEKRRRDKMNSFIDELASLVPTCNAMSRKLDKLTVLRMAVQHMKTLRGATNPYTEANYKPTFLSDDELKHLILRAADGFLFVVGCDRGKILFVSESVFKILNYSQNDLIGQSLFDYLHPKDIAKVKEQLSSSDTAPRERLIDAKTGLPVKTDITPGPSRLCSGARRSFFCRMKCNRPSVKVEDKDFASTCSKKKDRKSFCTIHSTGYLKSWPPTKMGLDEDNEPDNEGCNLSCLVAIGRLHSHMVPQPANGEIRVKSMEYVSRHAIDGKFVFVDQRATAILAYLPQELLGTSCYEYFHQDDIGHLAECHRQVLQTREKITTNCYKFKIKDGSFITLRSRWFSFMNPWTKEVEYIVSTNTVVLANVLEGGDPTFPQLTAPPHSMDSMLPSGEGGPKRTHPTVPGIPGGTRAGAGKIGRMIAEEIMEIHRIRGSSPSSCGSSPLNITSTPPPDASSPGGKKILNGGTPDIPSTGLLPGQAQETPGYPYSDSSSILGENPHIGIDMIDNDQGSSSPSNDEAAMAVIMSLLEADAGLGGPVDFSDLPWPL

No constants are given. Whether binding was seen depends on the method and setting. In cells and extracts the contact can be indirect. Some results given as binding are weak or reduced against the parent protein; the word gives no strength.

As to “BMAL1 (endogenous, mouse liver) (from UniProt Q9WTL8 1-632)”, the binding entry in experiment [1] is recorded as “binds”.
With “BMAL1 (endogenous, primary hepatocytes) (from UniProt Q9WTL8 1-632)”, in experiment [2], the binding result is “binds”.

Values taken from PMC6208480.
